The test can be described thus: qHTS Assay for Modulators of Lamin A Splicing. The following applies: HeLa LMNA splicing GFP/RFP minigene ratio, 48 h. The gist of the method: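 S3 HeLa stable clones carrying a lamin A-EGFP splicing minigene plus DsRed2 were seeded at 600 cells/well in Opti-MEM with 2% FBS, pin-dosed and incubated 48 h at 37°C. Acumen cytometry (488 nm) gave the GFP/RFP total-intensity ratio.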
In general terms: In qHTS, concentration-response curves come from the screen itself.

The mark [1] stands for this setting: measured here: GFP splicing reporter channel.
Setting [2] is: measured here: RFP viability control channel.

We go through 52 compounds from PubChem BioAssay AID1487 (National Center for Advancing Translational Sciences (NCATS), 2009).

SMILES strings stand for the structures. The list shows a part of the results. These are further read-outs of the screen, such as a control signal, another cell line or another target. No call is given for them. Most of these compounds were active or inconclusive in the main read-out, so they are no random draw. The note in brackets gives the kind of curve behind each potency; many fits are weak.

Regarding `CC(OC(=O)c1cc2sccc2n1C)C(=O)NCc1ccco1` (configuration not stated), the concentration at half-maximal activity (AC50) – broadly, the midpoint of the concentration-response curve, whichever way the signal moves – under setting [1] is 17.8 µM [rising, single point] and the AC50 under setting [2] was 31.6 µM [rising, single point].
In the case of `CCOC(=O)c1c(NC(=S)Nc2ccccc2)sc2c1CCCCC2`, the concentration at half-maximal activity (AC50) was 11.2 µM [rising, single point] under setting [1] and 35.5 µM [rising, single point] under setting [2].
For the compound `CCOC(=O)C1=C(C)Nc2nnnn2C1c1ccccc1Cl` (configuration not stated), the concentration at half-maximal activity (AC50) under setting [2] was 1.26 µM [rising, partial curve].
As to `COc1ccc(S(=O)(=O)n2nc(OC(=O)c3ccccc3Br)cc2N)cc1`, the half-maximal activity concentration (AC50) under setting [2] was 35.5 µM [falling, single point].
For the compound `COc1ccc2nc(SCC(=O)Nc3ccccc3)[nH]c2c1`, the AC50 was 12.6 µM [rising, single point] under setting [1] and 15.8 µM [rising, single point] under setting [2].
In the case of `O=C(Nc1cc(Sc2nc3ccccc3s2)cc([N+](=O)[O-])c1)c1ccccc1`, the AC50 under setting [2] is 15.8 µM [rising, single point].
Consider `CN(C(=O)c1ccc2c(c1)OCO2)C1(C(=O)NC2CCCCC2)CCCCC1`, for which the half-maximal activity concentration (AC50) reads like this: under setting [1], 15.8 µM [rising, single point]; under setting [2], 14.1 µM [rising, single point].
Regarding `CC(C)CCn1cnc2c(cnn2-c2ccc(F)cc2)c1=O`, the AC50 under setting [2] is 14.1 µM [rising, single point].
For the compound `Cc1ccc(SCCNC(=S)Nc2ccc(C)c(C)c2)cc1`, the AC50 by setting is: under setting [1], 22.4 µM [falling, single point]; under setting [2], 12.6 µM [falling, partial curve].
For the compound `CC(=O)N1c2ccccc2N2C(c3c(C)c(C)cc(C)c3C)=NON12`, the AC50 is, setting by setting: under setting [1], 12.6 µM [falling, partial curve, poor fit]; under setting [2], 15.8 µM [falling, partial curve, poor fit].
On to `CCn1c(CN2CCCCC2)nc2cc(NC(=O)c3ccc([N+](=O)[O-])cc3)ccc21`, for which the AC50 under setting [1] is 2.51 µM [falling, partial curve].
As to `COC(=O)c1c(NC(=O)/C=C/C(=O)O)sc(C)c1-c1ccc(C)c(C)c1`, the AC50 under setting [2] was 35.5 µM [rising, single point].
`C/C(=N\OC(=O)c1c(-c2ccccc2Cl)noc1C)c1ccncc1`: the concentration at half-maximal activity (AC50) is, setting by setting: under setting [1], 5.01 µM [falling, single point]; under setting [2], 0.00316 µM [falling, full curve, poor fit].
Consider `CN(C)C(=S)N=Nc1[nH]c2ccccc2c1O`, for which, under setting [2], the AC50 was 35.5 µM [rising, single point].
Consider `CC(C)CN1CCN(Cc2cnc(-c3ccc(Cl)cc3)nc2)CC1CCO` (configuration not stated), for which the half-maximal activity concentration (AC50) was 0.282 µM [falling, full curve] under setting [1] and 0.708 µM [falling, full curve] under setting [2].
For `CCn1c(SCC(=O)Nc2nccs2)nnc1-c1ccc(S(=O)(=O)N2CCCCCC2)cc1`, under setting [2], the AC50 was 22.4 µM [rising, single point].
For `Cc1c(C(=O)NCCc2ccc(S(N)(=O)=O)cc2)sc2nc3n(c(=O)c12)CCCC3`, the AC50 under setting [1] is 6.31 µM [falling, partial curve] and the AC50 under setting [2] is 0.00282 µM [falling, full curve].
Regarding `COc1ccc2c(c1)CCc1cc(C(=O)N3CCN(c4ccc(N5CCOCC5)nn4)CC3)sc1-2`, the half-maximal activity concentration (AC50) under setting [2] was 7.08 µM [rising, partial curve].
As for `O=C(CSc1ncn[nH]1)Nc1nnc(-c2ccccc2)s1`, the AC50 was 10 µM [rising, partial curve] under setting [1] and 12.6 µM [rising, single point] under setting [2].
`Cc1ccc(-n2cc(CN3CCC(O)(c4ccccn4)CC3)c(-c3ccc(F)cc3)n2)cc1`: the AC50 under setting [1] is 10 µM [falling, partial curve] and the AC50 under setting [2] was 11.2 µM [falling, partial curve, poor fit].
With `CN(C)c1ccnc(Oc2ccc(C(C)(C)C)cc2)c1C#N`, under setting [2], the concentration at half-maximal activity (AC50) is 31.6 µM [rising, single point].
With `CCOC(=O)c1ccccc1NC(=O)N1CCOc2ccc(Cl)cc21`, the AC50 under setting [1] is 0.00631 µM [falling, full curve] and the AC50 under setting [2] is 0.00316 µM [falling, full curve].
Consider `Cc1ccc(C(=O)Nc2ccc(C)c(S(=O)(=O)N(C)C)c2)s1`, for which the AC50 is 35.5 µM [rising, single point] under setting [1] and 35.5 µM [rising, single point] under setting [2].
`O=C(NCCN1CCOCC1)c1sc2ccccc2c1Cl`: the AC50 was 0.891 µM [falling, full curve, poor fit] under setting [1] and 0.501 µM [falling, full curve] under setting [2].
For the compound `Cc1ccc2ccc3cc(C(=O)N4CCN(c5ccccc5)CC4)nc3c2[nH]1`, the concentration at half-maximal activity (AC50) under setting [1] was 0.01 µM [rising, full curve, poor fit].
In the case of `O=c1sc2ccccc2c(N2CCCC2)c1[N+](=O)[O-]`, the half-maximal activity concentration (AC50) under setting [2] was 5.62 µM [falling, single point].
`COc1ccc(-c2ccc3cc(C(=O)O)ccc3c2)cc1C12CC3CC(CC(C3)C1)C2`: the half-maximal activity concentration (AC50) was 25.1 µM [falling, single point] under setting [1] and 3.16 µM [falling, partial curve] under setting [2].
As for `C=CCN1C(=O)CSc2ccc(C(=O)NCCC3=CCCCC3)cc21`, the AC50 runs as follows: under setting [1], 11.2 µM [rising, single point]; under setting [2], 14.1 µM [rising, single point].
Take `Cc1ccc(N2C(=O)NC(NC(=O)C(C)(C)C)(C(F)(F)F)C2=O)cc1C` (configuration not stated): the AC50 was 22.4 µM [falling, single point] under setting [1] and 11.2 µM [falling, single point] under setting [2].
On to `COc1ccc(OC)c(S(=O)(=O)Nc2cc(C(=O)O)ccc2N2CC3CC(C2)c2cccc(=O)n2C3)c1` (configuration not stated), for which the concentration at half-maximal activity (AC50) is, setting by setting: under setting [1], 0.0251 µM [falling, full curve, poor fit]; under setting [2], 0.0224 µM [falling, full curve, poor fit].
On to `O=C(NNc1c2ccccc2nc2ccccc12)c1ccc(O)cc1`, for which the concentration at half-maximal activity (AC50) under setting [2] was 12.6 µM [rising, partial curve, poor fit].
Turning to `COc1ccc(NS(=O)(=O)c2cc(NC(=O)C3CC3)ccc2N2CCCCC2)cc1`, the AC50 under setting [1] was 0.00708 µM [falling, full curve, poor fit].
For `O=C(Nc1ccc2c(c1)C(=O)N(CC1CCCO1)C2=O)c1ccc(Cl)c(Cl)c1` (configuration not stated), the half-maximal activity concentration (AC50) under setting [2] was 6.31 µM [rising, partial curve].
For `CCN(CC)CCNCC(O)(c1ccc(Cl)cc1)c1ccc(Cl)cc1`, the concentration at half-maximal activity (AC50) by setting is: under setting [1], 11.2 µM [falling, partial curve]; under setting [2], 8.91 µM [falling, partial curve, poor fit].
`Cc1cc(C)n(CC(O)CN(c2ccccc2)S(=O)(=O)c2ccc3ccccc3c2)n1` (configuration not stated): the half-maximal activity concentration (AC50) under setting [2] is 35.5 µM [rising, single point].
In the case of `Cc1ccc(Cc2nc3ccccc3nc2SCC(=O)N2CCCCC2C)cc1` (configuration not stated), under setting [2], the AC50 is 31.6 µM [rising, single point].
For `Cc1ccc(-c2nnn(CC(=O)N(C)C3CCCCC3)n2)o1`, the concentration at half-maximal activity (AC50) is, setting by setting: under setting [1], 0.0316 µM [falling, full curve, poor fit]; under setting [2], 0.0316 µM [falling, full curve, poor fit].
`O=C(c1ccc2c3c(cccc13)C(=O)N(O)C2=O)N1CCCCC1`: the concentration at half-maximal activity (AC50) under setting [2] was 7.08 µM [rising, partial curve].
For the compound `CS(=O)(=O)N(Cc1ccc(Cl)cc1)c1ccc(C(=O)Nc2cccnc2)cc1`, the AC50 was 11.2 µM [rising, single point] under setting [1] and 31.6 µM [rising, single point] under setting [2].
`COc1cccc(N2CCN(S(=O)(=O)c3ccc4c(c3)CCCN4C(C)=O)CC2)c1`: the AC50 under setting [1] is 35.5 µM [falling, single point].
Take `COCCNc1nc2c(c(=O)n(C)c(=O)n2C)n1Cc1cccc(C)c1`: the concentration at half-maximal activity (AC50) under setting [2] was 20 µM [rising, partial curve, poor fit].
For `CC(C)N1CCC(NC(=O)Nc2ccccc2)CC1`, under setting [1], the AC50 was 0.141 µM [rising, full curve, poor fit].
For `COc1ccc(CCN2CCC(CNC(=O)c3cnn(-c4ccccc4)c3C3CCN(C(=O)OC(C)(C)C)CC3)CC2)cc1`, the AC50 under setting [2] is 22.4 µM [rising, partial curve, poor fit].
`CCOc1ccccc1NS(=O)(=O)c1ccc2c(c1)n(C)c(=O)c(=O)n2C`: the AC50 under setting [1] is 1.58 µM [falling, partial curve, poor fit] and the concentration at half-maximal activity (AC50) under setting [2] was 0.224 µM [falling, partial curve].
`CCCOc1ccccc1NC(=O)/C=C/C(N)=O`: the concentration at half-maximal activity (AC50) was 35.5 µM [falling, single point] under setting [1] and 35.5 µM [falling, single point] under setting [2].
For the compound `COc1ccc(C)cc1NC(=O)Cn1cc(S(=O)(=O)Cc2ccccc2Cl)c2ccccc21`, the concentration at half-maximal activity (AC50) was 15.8 µM [falling, single point] under setting [1] and 35.5 µM [falling, single point] under setting [2].
With `O=C(Nc1ccncc1)c1cc2ccccc2o1`, the concentration at half-maximal activity (AC50) under setting [2] is 35.5 µM [rising, single point].
Still for that read-out and setting: as for `CCN(CC(=O)NCc1ccc(Cl)cc1)C(=O)/C=C/c1cccs1`, the figure is 2.51 µM [falling, partial curve]; as for `Cc1cc(C(C)(C)C)cc(C)c1Cn1c2[n+](c3ccc(C(F)(F)F)cc31)CCCCC2`, 31.6 µM [rising, single point]; as for `CC1CCN(C(=O)c2ccc(S(=O)(=O)Cc3ccccc3F)c([N+](=O)[O-])c2)CC1`, 15.8 µM [rising, partial curve, poor fit].
As for `Cc1ccc(-c2cc(C(=O)N3CCN(c4ccccc4)CC3)c3ccccc3n2)cc1C`, the AC50 under setting [2] was 14.1 µM [rising, single point].
For the compound `Cc1ccc(CN2CCN(Cc3cnn(-c4ccc(Cl)cc4)c3)CC2CCO)o1` (configuration not stated), the AC50 runs as follows: under setting [1], 4.47 µM [falling, partial curve, poor fit]; under setting [2], 35.5 µM [falling, partial curve, poor fit].
